Whole data set: some 1,900 compounds, median “excess over highest single agent (ExcessHSA) synergy score, 6x6 matrix” near -83, cut for the lowest 2% near -370. Some of the results follow.
These molecules were tested on NCI-H446 (assay: excess over highest single agent (ExcessHSA) synergy score, 6x6 matrix; higher = less synergy (more negative = stronger synergy)). Settings: 72 h; CellTiter-Glo viability.

SMILES	excess over highest single agent
CCOC(=O)[C@@H](C)Oc1cccc2c(=O)n(CC(=O)Nc3ccc4c(c3)OCCO4)ccc12 + Cc1sc2c(c1C)C(c1ccc(Cl)cc1)=N[C@@H](CC(=O)OC(C)(C)C)c1nnc(C)n1-2 [NCGC00250412-19]	-46.9
CO[C@H]1CC[C@@H](O[C@H]2C[C@H]([C@]3(C)CC[C@]4(C[C@H](O)[C@@H](C)[C@@H]([C@@H](C)/C=C(\C)C(=O)[C@H](C)C[C@H](C)C(=O)O)O4)O3)O[C@]3(O[C@@H]([C@H]4O[C@@](O)(CO)[C@H](C)C[C@@H]4C)C[C@@H]3C)[C@@H]2C)O[C@@H]1C + Cc1sc2c(c1C)C(c1ccc(Cl)cc1)=N[C@@H](CC(=O)OC(C)(C)C)c1nnc(C)n1-2 [NCGC00250412-19]	-220
Cc1c(-c2ccc(O)cc2)n(Cc2ccc(OCCN3CCCCCC3)cc2)c2ccc(O)cc12 + Cc1sc2c(c1C)C(c1ccc(Cl)cc1)=N[C@@H](CC(=O)OC(C)(C)C)c1nnc(C)n1-2 [NCGC00250412-19]	-207
NC[C@H](O)c1ccc(O)c(O)c1 + Cc1sc2c(c1C)C(c1ccc(Cl)cc1)=N[C@@H](CC(=O)OC(C)(C)C)c1nnc(C)n1-2 [NCGC00250412-19]	-87.8
C=Cc1c(C)c2cc3nc(cc4[nH]c(cc5nc(cc1[nH]2)C(C)=C5CCC(=O)O)c(CCC(=O)OC)c4C)[C@@]1(C)C3=CC=C(C(=O)OC)[C@H]1C(=O)OC + Cc1sc2c(c1C)C(c1ccc(Cl)cc1)=N[C@@H](CC(=O)OC(C)(C)C)c1nnc(C)n1-2 [NCGC00250412-19]	17.6
CN(C)CC/C=C1/c2ccccc2COc2ccc(CC(=O)O)cc21 + Cc1sc2c(c1C)C(c1ccc(Cl)cc1)=N[C@@H](CC(=O)OC(C)(C)C)c1nnc(C)n1-2 [NCGC00250412-19]	-97.6
CC1=C2C[C@H]3[C@@H](CC=C4C[C@@H](O)CC[C@@]43C)[C@@H]2CC[C@]12O[C@@H]1C[C@H](C)CN[C@H]1[C@H]2C + Cc1sc2c(c1C)C(c1ccc(Cl)cc1)=N[C@@H](CC(=O)OC(C)(C)C)c1nnc(C)n1-2 [NCGC00250412-19]	144
C[C@H](NC(=O)C(=O)Nc1ccccc1C(C)(C)C)C(=O)N[C@@H](CC(=O)O)C(=O)COc1c(F)c(F)cc(F)c1F + Cc1sc2c(c1C)C(c1ccc(Cl)cc1)=N[C@@H](CC(=O)OC(C)(C)C)c1nnc(C)n1-2 [NCGC00250412-19]	15.5
C[C@@H]1CN(Cc2ccc(F)cc2)[C@@H](C)CN1C(=O)c1cc2c(C(=O)C(=O)N(C)C)cn(C)c2cc1Cl + Cc1sc2c(c1C)C(c1ccc(Cl)cc1)=N[C@@H](CC(=O)OC(C)(C)C)c1nnc(C)n1-2 [NCGC00250412-19]	110
O=C1CCCC(=O)C1C(=O)c1ccc(C(F)(F)F)cc1[N+](=O)[O-] + Cc1sc2c(c1C)C(c1ccc(Cl)cc1)=N[C@@H](CC(=O)OC(C)(C)C)c1nnc(C)n1-2 [NCGC00250412-19]	-184
Cc1ccc(-n2nc(C(C)(C)C)cc2NC(=O)Nc2ccc(OCCN3CCOCC3)c3ccccc23)cc1 + Cc1sc2c(c1C)C(c1ccc(Cl)cc1)=N[C@@H](CC(=O)OC(C)(C)C)c1nnc(C)n1-2 [NCGC00250412-19]	-49.7
C/C=C/C/C=C/CCC(=O)[C@H]1O[C@H]1C(N)=O + Cc1sc2c(c1C)C(c1ccc(Cl)cc1)=N[C@@H](CC(=O)OC(C)(C)C)c1nnc(C)n1-2 [NCGC00250412-19]	42.2
CNC(=O)c1ccc(C)c(-n2c(C)cc(OCc3ccc(F)cc3F)c(Br)c2=O)c1 + Cc1sc2c(c1C)C(c1ccc(Cl)cc1)=N[C@@H](CC(=O)OC(C)(C)C)c1nnc(C)n1-2 [NCGC00250412-19]	-96.4
N#C/C(=C(/O)c1ccc(Cl)cc1Cl)c1nc2cc(Cl)ccc2c(=O)[nH]1 + Cc1sc2c(c1C)C(c1ccc(Cl)cc1)=N[C@@H](CC(=O)OC(C)(C)C)c1nnc(C)n1-2 [NCGC00250412-19]	-216
CN[C@@H](C)C(=O)N[C@H]1CCCC[C@H]2CC[C@@H](C(=O)N[C@@H](c3ccccc3)c3cn(CCCCc4ccc(CCCCn5cc([C@@H](NC(=O)[C@@H]6CC[C@@H]7CCCC[C@H](NC(=O)[C@H](C)NC)C(=O)N76)c6ccccc6)nn5)cc4)nn3)N2C1=O + Cc1sc2c(c1C)C(c1ccc(Cl)cc1)=N[C@@H](CC(=O)OC(C)(C)C)c1nnc(C)n1-2 [NCGC00250412-19]	-208
CC(C)C[C@H](NC(=O)CNC(=O)c1cc(Cl)ccc1Cl)B1OC(=O)C(CC(=O)O)(CC(=O)O)O1 + Cc1sc2c(c1C)C(c1ccc(Cl)cc1)=N[C@@H](CC(=O)OC(C)(C)C)c1nnc(C)n1-2 [NCGC00250412-19]	-240
CCN(CC)CCCCNc1ncc2cc(-c3cc(OC)cc(OC)c3)c(NC(=O)NC(C)(C)C)nc2n1 + Cc1sc2c(c1C)C(c1ccc(Cl)cc1)=N[C@@H](CC(=O)OC(C)(C)C)c1nnc(C)n1-2 [NCGC00250412-19]	-104
CC(C)(O)Cn1c(NC(=O)c2ccc(-c3cn[nH]c3)s2)nc2cc(CN3CCOCC3)ccc21 + Cc1sc2c(c1C)C(c1ccc(Cl)cc1)=N[C@@H](CC(=O)OC(C)(C)C)c1nnc(C)n1-2 [NCGC00250412-19]	-423
CCCOc1ccc(C(=O)OCCN(CC)CC)cc1N + Cc1sc2c(c1C)C(c1ccc(Cl)cc1)=N[C@@H](CC(=O)OC(C)(C)C)c1nnc(C)n1-2 [NCGC00250412-19]	83.1
Cc1cc(SCc2sc(-c3ccc(C(F)(F)F)cc3)nc2C)ccc1OCC(=O)O + Cc1sc2c(c1C)C(c1ccc(Cl)cc1)=N[C@@H](CC(=O)OC(C)(C)C)c1nnc(C)n1-2 [NCGC00250412-19]	-98.3
CCOc1cc2c(c(F)c1OCC)C(=N)N(CC(=O)c1cc(N3CCOCC3)c(OC)c(C(C)(C)C)c1)C2 + Cc1sc2c(c1C)C(c1ccc(Cl)cc1)=N[C@@H](CC(=O)OC(C)(C)C)c1nnc(C)n1-2 [NCGC00250412-19]	-86.3
Oc1cccc(-c2nc(N3CCOCC3)c3oc4ncccc4c3n2)c1 + Cc1sc2c(c1C)C(c1ccc(Cl)cc1)=N[C@@H](CC(=O)OC(C)(C)C)c1nnc(C)n1-2 [NCGC00250412-19]	-410

Some of the entries so far, bar-delimited:
SMILES | excess over highest single agent
N#C/C(=C(/O)c1ccc(Cl)cc1Cl)c1nc2cc(Cl)ccc2c(=O)[nH]1 + Cc1sc2c(c1C)C(c1ccc(Cl)cc1)=N[C@@H](CC(=O)OC(C)(C)C)c1nnc(C)n1-2 [NCGC00250412-19] | -216
CN[C@@H](C)C(=O)N[C@H]1CCCC[C@H]2CC[C@@H](C(=O)N[C@@H](c3ccccc3)c3cn(CCCCc4ccc(CCCCn5cc([C@@H](NC(=O)[C@@H]6CC[C@@H]7CCCC[C@H](NC(=O)[C@H](C)NC)C(=O)N76)c6ccccc6)nn5)cc4)nn3)N2C1=O + Cc1sc2c(c1C)C(c1ccc(Cl)cc1)=N[C@@H](CC(=O)OC(C)(C)C)c1nnc(C)n1-2 [NCGC00250412-19] | -208

— the supplement of paper PMC10077471
